{"source": "PubChem BioAssay AID686943 | Drosophila RNAi Screening Center | 2013", "test": "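Fly genes whose loss alters ERK activation after insulin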 (primary screen)", "cells": "Drosophila S2R+ haemocyte-like cells expressing YFP-tagged ERK (Rolled)", "knock-down reagent": "long dsRNA against Drosophila genes", "conditions": "insulin stimulation versus unstimulated cells; dose and duration not given", "measured": "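Per-plate z-scores of phospho-ERK immunostaining normalised to YFP-tagged ERK, measured with and without insulin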", "reading the numbers": "replicate 1, z-score of dpERK with insulin: higher = more active ERK per ERK-YFP after insulin", "note": "The deposit covers about 23,000 reagents; shown is an unselected part of those that have a named target and a result. 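Extra replicates exist only for a retested subset of genes; insulin dose and duration not given; both raised and lowered dpERK matter.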 Reagents against one gene are numbered here. A plus sign joins genes that one reagent is predicted to hit. Not all columns of the deposit are shown. No sequences are given here. The record does not give: the amount of reagent, the time to read-out."}
The opening 3 entries, to show the layout:
{"gene": "Snx21 (Sorting nexin 21)", "reagent": 1, "replicate 1, z-score of dpERK with insulin": -0.28}
{"gene": "cnc (cap-n-collar)", "reagent": 1, "replicate 1, z-score of dpERK with insulin": -1.57}
{"gene": "cnc (cap-n-collar)", "reagent": 2, "replicate 1, z-score of dpERK with insulin": -1.41}

The listing, from the first entry:
{"gene": "Snx21 (Sorting nexin 21)", "reagent": 1, "replicate 1, z-score of dpERK with insulin": -0.28}
{"gene": "cnc (cap-n-collar)", "reagent": 1, "replicate 1, z-score of dpERK with insulin": -1.57}
{"gene": "cnc (cap-n-collar)", "reagent": 2, "replicate 1, z-score of dpERK with insulin": -1.41}
{"gene": "cnc (cap-n-collar)", "reagent": 3, "replicate 1, z-score of dpERK with insulin": -1.14}
{"gene": "cnc (cap-n-collar)", "reagent": 4, "replicate 1, z-score of dpERK with insulin": -0.28}
{"gene": "CG30114", "reagent": 1, "replicate 1, z-score of dpERK with insulin": 0.6}
{"gene": "knrl (knirps-like)", "reagent": 1, "replicate 1, z-score of dpERK with insulin": 0.03}
{"gene": "CG7607", "reagent": 1, "replicate 1, z-score of dpERK with insulin": 0.02}
{"gene": "CG2694", "reagent": 1, "replicate 1, z-score of dpERK with insulin": 0.4}
{"gene": "Ald2 (Aldolase 2)", "reagent": 1, "replicate 1, z-score of dpERK with insulin": -1.21}
{"gene": "Ald2 (Aldolase 2)", "reagent": 2, "replicate 1, z-score of dpERK with insulin": -0.02}
{"gene": "Or59c (Odorant receptor 59c)", "reagent": 1, "replicate 1, z-score of dpERK with insulin": -0.05}
{"gene": "Argk2 (Arginine kinase 2)", "reagent": 1, "replicate 1, z-score of dpERK with insulin": 0.38}
{"gene": "robl37BC", "reagent": 1, "replicate 1, z-score of dpERK with insulin": 0.37}
{"gene": "CG5793 + Obp93a", "reagent": 1, "replicate 1, z-score of dpERK with insulin": 0.94}
{"gene": "CG12003", "reagent": 1, "replicate 1, z-score of dpERK with insulin": -0.06}
{"gene": "CG11158", "reagent": 1, "replicate 1, z-score of dpERK with insulin": 0.27}
{"gene": "CG8051", "reagent": 1, "replicate 1, z-score of dpERK with insulin": -0.14}
{"gene": "D19A", "reagent": 1, "replicate 1, z-score of dpERK with insulin": -2.96}
{"gene": "fd102C (forkhead domain 102C)", "reagent": 1, "replicate 1, z-score of dpERK with insulin": 1.06}
{"gene": "awd (abnormal wing discs)", "reagent": 1, "replicate 1, z-score of dpERK with insulin": -0.47}
{"gene": "CG5281", "reagent": 1, "replicate 1, z-score of dpERK with insulin": -0.22}
{"gene": "ND6 (retired record)", "reagent": 1, "replicate 1, z-score of dpERK with insulin": 0.52}
{"gene": "CG31816", "reagent": 1, "replicate 1, z-score of dpERK with insulin": -1.85}
{"gene": "alphaCOP (Coat Protein (coatomer) alpha)", "reagent": 1, "replicate 1, z-score of dpERK with insulin": 1.59}
{"gene": "CG17211", "reagent": 1, "replicate 1, z-score of dpERK with insulin": 0}
{"gene": "ana1 (anastral spindle 1)", "reagent": 1, "replicate 1, z-score of dpERK with insulin": 0.67}
{"gene": "ana1 (anastral spindle 1)", "reagent": 2, "replicate 1, z-score of dpERK with insulin": 0.81}
{"gene": "Su(z)12", "reagent": 1, "replicate 1, z-score of dpERK with insulin": -0.35}
{"gene": "p53", "reagent": 1, "replicate 1, z-score of dpERK with insulin": -0.56}
{"gene": "eEF1alpha1 (eukaryotic translation elongation factor 1 alpha 1)", "reagent": 1, "replicate 1, z-score of dpERK with insulin": 1.38}
